This continues a long series; more values of the same kind are listed elsewhere.
Tests used:
Format in all cases: functional
[1] = system: Candida parapsilosis; test: Increase in CGD gene ortholog accession number orf19.497 expression in Candida parapsilosis CLIB214 at 50 uM after 2 hrs by microarray based transcriptional profiling relative to control
[2] = system: Candida parapsilosis; test: Increase in CGD gene ortholog accession number orf19.822 expression in Candida parapsilosis CLIB214 at 50 uM after 2 hrs by microarray based transcriptional profiling relative to control
[3] = system: Candida parapsilosis; test: Increase in CGD gene ortholog accession number orf19.2346 expression in Candida parapsilosis CLIB214 at 50 uM after 2 hrs by microarray based transcriptional profiling relative to control
[4] = system: Candida parapsilosis; test: Increase in SNZ1 gene expression in Candida parapsilosis CLIB214 at 50 uM after 2 hrs by microarray based transcriptional profiling relative to control
[5] = system: Candida parapsilosis; test: Decrease in CGD gene ortholog accession number orf19.478 expression in Candida parapsilosis CLIB214 at 50 uM after 2 hrs by microarray based transcriptional profiling relative to control
[6] = system: Candida parapsilosis; test: Decrease in FBP1 gene expression in Candida parapsilosis CLIB214 at 50 uM after 2 hrs by microarray based transcriptional profiling relative to control
[7] = system: Candida parapsilosis; test: Decrease in CGD gene ortholog accession number orf19.1905 expression in Candida parapsilosis CLIB214 at 50 uM after 2 hrs by microarray based transcriptional profiling relative to control
[8] = system: Candida parapsilosis; test: Decrease in CGD gene ortholog accession number orf19.136 expression in Candida parapsilosis CLIB214 at 50 uM after 2 hrs by microarray based transcriptional profiling relative to control
[9] = system: Candida parapsilosis; test: Increase in CDC12 gene expression in Candida parapsilosis CLIB214 at 50 uM after 2 hrs by microarray based transcriptional profiling relative to control
[10] = system: Candida parapsilosis; test: Increase in GRE3 gene expression in Candida parapsilosis CLIB214 at 50 uM after 2 hrs by microarray based transcriptional profiling relative to control
[11] = system: Candida parapsilosis; test: Increase in HOG1 gene expression in Candida parapsilosis CLIB214 at 50 uM after 2 hrs by microarray based transcriptional profiling relative to control
[12] = system: Candida parapsilosis; test: Increase in CGD gene ortholog accession number orf19.4044 expression in Candida parapsilosis CLIB214 at 50 uM after 2 hrs by microarray based transcriptional profiling relative to control
[13] = system: Candida parapsilosis; test: Increase in CGD gene ortholog accession number orf19.2465 expression in Candida parapsilosis CLIB214 at 50 uM after 2 hrs by microarray based transcriptional profiling relative to control
[14] = system: Candida parapsilosis; test: Increase in CGD gene ortholog accession number orf19.2208 expression in Candida parapsilosis CLIB214 at 50 uM after 2 hrs by microarray based transcriptional profiling relative to control
[15] = system: Candida parapsilosis; test: Increase in CGD gene ortholog accession number orf19.308 expression in Candida parapsilosis CLIB214 at 50 uM after 2 hrs by microarray based transcriptional profiling relative to control
[16] = system: Candida parapsilosis; test: Increase in CGD gene ortholog accession number orf19.5544 expression in Candida parapsilosis CLIB214 at 50 uM after 2 hrs by microarray based transcriptional profiling relative to control
[17] = system: Candida parapsilosis; test: Increase in CGD gene ortholog accession number orf19.5399 expression in Candida parapsilosis CLIB214 at 50 uM after 2 hrs by microarray based transcriptional profiling relative to control
[18] = system: Candida parapsilosis; test: Increase in CGD gene ortholog accession number orf19.1682 expression in Candida parapsilosis CLIB214 at 50 uM after 2 hrs by microarray based transcriptional profiling relative to control
[19] = system: Candida parapsilosis; test: Increase in CGD gene ortholog accession number orf19.4609 expression in Candida parapsilosis CLIB214 at 50 uM after 2 hrs by microarray based transcriptional profiling relative to control
[20] = system: Candida parapsilosis; test: Decrease in GenBank accession number XP_459779.1 expression in Candida parapsilosis CLIB214 at 50 uM after 2 hrs by microarray based transcriptional profiling relative to control
[21] = system: Candida parapsilosis; test: Decrease in CGD gene ortholog accession number orf19.2541 expression in Candida parapsilosis CLIB214 at 50 uM after 2 hrs by microarray based transcriptional profiling relative to control
[22] = system: Candida parapsilosis; test: Increase in GenBank accession number NP_943643.1 expression in Candida parapsilosis CLIB214 at 50 uM after 2 hrs by microarray based transcriptional profiling relative to control
[23] = system: Candida parapsilosis; test: Decrease in CGD gene ortholog accession number orf19.6804 expression in Candida parapsilosis CLIB214 at 50 uM after 2 hrs by microarray based transcriptional profiling relative to control
[24] = system: Candida parapsilosis; test: Decrease in CGD gene ortholog accession number orf19.1850 expression in Candida parapsilosis CLIB214 at 50 uM after 2 hrs by microarray based transcriptional profiling relative to control
[25] = system: Candida parapsilosis; test: Increase in CGD gene ortholog accession number orf19.5617 expression in Candida parapsilosis CLIB214 at 50 uM after 2 hrs by microarray based transcriptional profiling relative to control
[26] = system: Candida parapsilosis; test: Increase in CGD gene ortholog accession number orf19.4488 expression in Candida parapsilosis CLIB214 at 50 uM after 2 hrs by microarray based transcriptional profiling relative to control
[27] = system: Candida parapsilosis; test: Increase in CGD gene ortholog accession number orf19.5612 expression in Candida parapsilosis CLIB214 at 50 uM after 2 hrs by microarray based transcriptional profiling relative to control
[28] = system: Candida parapsilosis; test: Increase in CGD gene ortholog accession number orf19.2167 expression in Candida parapsilosis CLIB214 at 50 uM after 2 hrs by microarray based transcriptional profiling relative to control
[29] = system: Candida parapsilosis; test: Decrease in CGD gene ortholog accession number orf19.6046 expression in Candida parapsilosis CLIB214 at 50 uM after 2 hrs by microarray based transcriptional profiling relative to control
[30] = system: Candida parapsilosis; test: Decrease in CGD gene ortholog accession number orf19.1070 expression in Candida parapsilosis CLIB214 at 50 uM after 2 hrs by microarray based transcriptional profiling relative to control
[31] = system: Candida parapsilosis; test: Decrease in STE3 gene expression in Candida parapsilosis CLIB214 at 50 uM after 2 hrs by microarray based transcriptional profiling relative to control
[32] = system: Candida parapsilosis; test: Decrease in CGD gene ortholog accession number orf19.4700 expression in Candida parapsilosis CLIB214 at 50 uM after 2 hrs by microarray based transcriptional profiling relative to control
[33] = system: Candida parapsilosis; test: Decrease in CGD gene ortholog accession number orf19.4637 expression in Candida parapsilosis CLIB214 at 50 uM after 2 hrs by microarray based transcriptional profiling relative to control
[34] = system: Candida parapsilosis; test: Increase in CGD gene ortholog accession number orf19.182 expression in Candida parapsilosis CLIB214 at 50 uM after 2 hrs by microarray based transcriptional profiling relative to control
[35] = system: Candida parapsilosis; test: Increase in SNQ2 gene expression in Candida parapsilosis CLIB214 at 50 uM after 2 hrs by microarray based transcriptional profiling relative to control
[36] = system: Candida parapsilosis; test: Increase in GenBank accession number AAF06350.1 expression in Candida parapsilosis CLIB214 at 50 uM after 2 hrs by microarray based transcriptional profiling relative to control

CC(C)=CCC/C(C)=C/CC/C(C)=C/CO [FARNESOL]
fold change (FC) [1]: 2.26
fold change (FC) [2]: 2.15
fold change (FC) [3]: 1.59
fold change (FC) [4]: 2.01
fold change (FC) [5]: 1.56
fold change (FC) [6]: 1.93
fold change (FC) [7]: 1.94
fold change (FC) [8]: 1.99
fold change (FC) [9]: 1.76
fold change (FC) [10]: 1.74
fold change (FC) [11]: 1.56
fold change (FC) [12]: 1.56
fold change (FC) [13]: 1.56
fold change (FC) [14]: 1.51
fold change (FC) [15]: 1.51
fold change (FC) [16]: 1.91
fold change (FC) [17]: 1.55
fold change (FC) [18]: 1.54
fold change (FC) [19]: 1.54
fold change (FC) [20]: 1.6
fold change (FC) [21]: 1.6
fold change (FC) [22]: 1.81
fold change (FC) [23]: 1.61
fold change (FC) [24]: 1.62
fold change (FC) [25]: 1.71
fold change (FC) [26]: 1.7
fold change (FC) [27]: 1.62
fold change (FC) [28]: 1.54
fold change (FC) [29]: 1.53
fold change (FC) [30]: 2.48
fold change (FC) [31]: 1.65
fold change (FC) [32]: 1.83
fold change (FC) [33]: 1.78
fold change (FC) [34]: 1.61
fold change (FC) [35]: 2.43
fold change (FC) [36]: 2.39

From ChEMBL document CHEMBL1157379, “Transcriptional response of Candida parapsilosis following exposure to farnesol” (2007)
